Experimental data taken from patent publication US10342809B2, “Neuroactive 19-alkoxy-17-substituted steroids, prodrugs thereof, and methods of treatment using same” (priority 2012, dated 2019).

Columns and labels:
[1] = tested on: picrotoxin binding site on GABAA receptors; assay: [35S]-TBPS displacement (inhibition of [35S]-TBPS binding); details: Hill coefficient of the displacement curve; ± SEM
Excerpt: The IC50 values for non-competitive displacers of [^35S]-TBPS from the picrotoxin binding site on GABAA receptors are reported in Table 1.

Tadpole = Tadpole loss of righting reflex (LRR) and loss of swimming reflex (LSR); format: in vivo; details: Hill coefficient
Experimental: Table 3 discloses the anesthetic effects of the compounds of the present disclosure. In particular, the anesthetic effect of the compounds of the present disclosure on Loss of Righting Reflex (LRR) and Loss of Swimming Reflex (LSR).
Methods used are known in the art (see Jiang, X., et al.). Error limits are calculated as standard error of the mean (N=10 or more animals at each of five or more different concentrations).

COC[C@]12CC[C@@H](O)C[C@@H]1CC[C@@H]1[C@@H]2CC[C@]2(C)C(=O)CC[C@@H]12 [Compound 11, (3α,5α)-3-Hydroxy-19-methoxyandrostan-17-one]
nHill, [35S]-TBPS binding [1]: 0.95 ± 0.15
Tadpole LRR nHill (Tadpole; loss of righting reflex): −1.81 ± 0.97
Tadpole LSR nHill (Tadpole; loss of swimming reflex): −36.2 ± 0.2
